# From publication PMC7352350
# These are yes or no findings as the source states them, for the method shown. Tags and fused reporters may be left off the sequences shown.
# T1: FnII peptide 22 with E274 mutated (human) (UniProt P14780)
# T1 sequence (peptide): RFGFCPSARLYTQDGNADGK
# T2: HPX peptide 85 with I701 mutated (human) (UniProt P14780)
# T2 sequence (peptide): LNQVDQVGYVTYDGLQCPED
# T3: HPX peptide 69 with Y667 mutated (human) (UniProt P14780)
# T3 sequence (peptide): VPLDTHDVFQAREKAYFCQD
# T4: FnII peptide 35 with R307 mutated (human) (UniProt P14780)
# T4 sequence (peptide): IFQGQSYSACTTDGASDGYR
# T5: FnII peptide 22 with Y277 mutated (human) (UniProt P14780)
# T5 sequence (peptide): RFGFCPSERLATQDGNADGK
# T6: HPX peptide 37 with D609 mutated (human) (UniProt P14780)
# T6 sequence (peptide): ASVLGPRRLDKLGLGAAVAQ
# T7: HPX peptide 41 with R618 mutated to alanine (human) (UniProt P14780)
# T7 sequence (peptide): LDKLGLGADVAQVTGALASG
# T8: HPX peptide 85 with D700 mutated (human) (UniProt P14780)
# T8 sequence (peptide): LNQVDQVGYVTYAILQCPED
# T9: HPX peptide 69 with F665 mutated (human) (UniProt P14780)
# T9 sequence (peptide): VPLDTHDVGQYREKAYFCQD
# T10: HPX peptide 57 (human) (UniProt P14780)
# T10 sequence (peptide): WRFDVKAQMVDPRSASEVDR
# T11: HPX peptide 16 (human) (UniProt P14780)
# T11 sequence (peptide): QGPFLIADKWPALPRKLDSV
# T12: FnII peptide 71 (human) (UniProt P14780)
# T12 sequence (peptide): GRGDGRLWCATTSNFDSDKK
# T13: FnII peptide 41 (human) (UniProt P14780)
# T13 sequence (peptide): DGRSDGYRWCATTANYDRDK
# T14: FnII peptide 46 (human) (UniProt P14780)
# T14 sequence (peptide): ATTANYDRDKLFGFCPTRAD
# T15: FnII peptide 49 (human) (UniProt P14780)
# T15 sequence (peptide): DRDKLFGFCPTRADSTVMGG
# T16: FnII peptide 45 (human) (UniProt P14780)
# T16 sequence (peptide): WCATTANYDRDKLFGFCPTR
# T17: HPX peptide 82 (human) (UniProt P14780)
# T17 sequence (peptide): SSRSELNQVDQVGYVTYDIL
# T18: HPX peptide 15 (human) (UniProt P14780)
# T18 sequence (peptide): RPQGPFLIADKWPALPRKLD
# T19: FnII peptide 57 (human) (UniProt P14780)
# T19 sequence (peptide): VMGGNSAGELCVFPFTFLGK
# T20: HPX peptide 53 (human) (UniProt P14780)
# T20 sequence (peptide): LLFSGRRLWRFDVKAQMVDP
# T21: FnII peptide 43 (human) (UniProt P14780)
# T21 sequence (peptide): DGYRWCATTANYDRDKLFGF
# T22: FnII peptide 42 (human) (UniProt P14780)
# T22 sequence (peptide): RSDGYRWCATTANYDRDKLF
# T23: HPX peptide 36 (human) (UniProt P14780)
# T23 sequence (peptide): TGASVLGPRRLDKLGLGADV
# T24: HPX peptide 78 (human) (UniProt P14780)
# T24 sequence (peptide): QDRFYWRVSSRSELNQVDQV
# T25: HPX peptide 17 (human) (UniProt P14780)
# T25 sequence (peptide): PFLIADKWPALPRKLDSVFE
# B1: recombinant human His-tagged serglycin (protein, UniProt P10124 28-158)
# chain: YPTRRARYQWVRCNPDSNSANCLEEKGPMFELLPGESNKIPRLRTDLFPKTRIQDLNRIFPLSEDYSGSGFGSGSGSGSGSGSGFLTEMEQDYQLVDESDAFHDNLRSLDRNLPSDSQDLGQHGLEEDFML
# Columns and labels:
# [1] = target: T1, FnII peptide 22 with E274 mutated (human); assay: peptide or protein array; mutated FnII and HPX 20-mer peptides on cellulose, incubated with Ht-SG; antibodies against SG; both purified
# [2] = target: T2, HPX peptide 85 with I701 mutated (human); assay: as above
# [3] = target: T3, HPX peptide 69 with Y667 mutated (human); assay: as above
# [4] = target: T4, FnII peptide 35 with R307 mutated (human); assay: as above
# [5] = target: T5, FnII peptide 22 with Y277 mutated (human); assay: as above
# [6] = target: T6, HPX peptide 37 with D609 mutated (human); assay: as above
# [7] = target: T7, HPX peptide 41 with R618 mutated to alanine (human); assay: as above
# [8] = target: T8, HPX peptide 85 with D700 mutated (human); assay: as above
# [9] = target: T9, HPX peptide 69 with F665 mutated (human); assay: as above
# HPX peptide 57 (human) = target: T10, HPX peptide 57 (human); assay: peptide or protein array; 20-mer walks of the MMP-9 FnII module and HPX domain on cellulose, two-residue shift; 10 uL of 1 ng/uL Ht-SG in 10 mL blocking buffer, 1-4 h, room temperature; antibodies against SG; both purified
# HPX peptide 16 (human) = target: T11, HPX peptide 16 (human); assay: as above
# FnII peptide 71 (human) = target: T12, FnII peptide 71 (human); assay: as above
# FnII peptide 41 (human) = target: T13, FnII peptide 41 (human); assay: as above
# FnII peptide 46 (human) = target: T14, FnII peptide 46 (human); assay: as above
# FnII peptide 49 (human) = target: T15, FnII peptide 49 (human); assay: as above
# FnII peptide 45 (human) = target: T16, FnII peptide 45 (human); assay: as above
# HPX peptide 82 (human) = target: T17, HPX peptide 82 (human); assay: as above
# HPX peptide 15 (human) = target: T18, HPX peptide 15 (human); assay: as above
# FnII peptide 57 (human) = target: T19, FnII peptide 57 (human); assay: as above
# HPX peptide 53 (human) = target: T20, HPX peptide 53 (human); assay: as above
# FnII peptide 43 (human) = target: T21, FnII peptide 43 (human); assay: as above
# FnII peptide 42 (human) = target: T22, FnII peptide 42 (human); assay: as above
# HPX peptide 36 (human) = target: T23, HPX peptide 36 (human); assay: as above
# HPX peptide 78 (human) = target: T24, HPX peptide 78 (human); assay: as above
# HPX peptide 17 (human) = target: T25, HPX peptide 17 (human); assay: as above
# [10] = target: proMMP-9 purified from THP-1 cells (human (endogenous in THP-1)) (UniProt P14780); assay: far-Western, overlay or dot blot; slot blot, competition: pMMP-9 on the membrane, 0.29 uM Ht-SG with or without 0.87 uM His-tag peptide; detected with antibodies against SG; both purified
binder,measurement,setting,value
B1,binding,[1],no binding
same,binding,[2],no binding
same,binding,[3],no binding
same,binding,[4],no binding
same,binding,[5],no binding
same,binding,[6],no binding
same,binding,[7],no binding
same,binding,[8],no binding
same,binding,[9],no binding
same,binding,HPX peptide 57 (human),no binding
same,binding,HPX peptide 16 (human),no binding
same,binding,FnII peptide 71 (human),no binding
same,binding,FnII peptide 41 (human),no binding
same,binding,FnII peptide 46 (human),no binding
same,binding,FnII peptide 49 (human),no binding
same,binding,FnII peptide 45 (human),no binding
same,binding,HPX peptide 82 (human),no binding
same,binding,HPX peptide 15 (human),no binding
same,binding,FnII peptide 57 (human),no binding
same,binding,HPX peptide 53 (human),no binding
same,binding,FnII peptide 43 (human),no binding
same,binding,FnII peptide 42 (human),no binding
same,binding,HPX peptide 36 (human),no binding
same,binding,HPX peptide 78 (human),no binding
same,binding,HPX peptide 17 (human),no binding
MGSSHHHHHHSSGLVPRGSHMGSHM [His-tag peptide],binding,[10],no binding (tested: 0.87 uM His-tag peptide)
